# Measurements reported in ChEMBL document CHEMBL4808148, “HDAC6 screening dataset using tau-based substrate in an enzymatic assay yields selective inhibitors and activators” (2021).
# Shown are results outside the selection of strong results, which stands elsewhere.
# Target: T1, Protein deacetylase HDAC6 (Homo sapiens) (UniProt Q9UBN7)
# T1 sequence (whole entry): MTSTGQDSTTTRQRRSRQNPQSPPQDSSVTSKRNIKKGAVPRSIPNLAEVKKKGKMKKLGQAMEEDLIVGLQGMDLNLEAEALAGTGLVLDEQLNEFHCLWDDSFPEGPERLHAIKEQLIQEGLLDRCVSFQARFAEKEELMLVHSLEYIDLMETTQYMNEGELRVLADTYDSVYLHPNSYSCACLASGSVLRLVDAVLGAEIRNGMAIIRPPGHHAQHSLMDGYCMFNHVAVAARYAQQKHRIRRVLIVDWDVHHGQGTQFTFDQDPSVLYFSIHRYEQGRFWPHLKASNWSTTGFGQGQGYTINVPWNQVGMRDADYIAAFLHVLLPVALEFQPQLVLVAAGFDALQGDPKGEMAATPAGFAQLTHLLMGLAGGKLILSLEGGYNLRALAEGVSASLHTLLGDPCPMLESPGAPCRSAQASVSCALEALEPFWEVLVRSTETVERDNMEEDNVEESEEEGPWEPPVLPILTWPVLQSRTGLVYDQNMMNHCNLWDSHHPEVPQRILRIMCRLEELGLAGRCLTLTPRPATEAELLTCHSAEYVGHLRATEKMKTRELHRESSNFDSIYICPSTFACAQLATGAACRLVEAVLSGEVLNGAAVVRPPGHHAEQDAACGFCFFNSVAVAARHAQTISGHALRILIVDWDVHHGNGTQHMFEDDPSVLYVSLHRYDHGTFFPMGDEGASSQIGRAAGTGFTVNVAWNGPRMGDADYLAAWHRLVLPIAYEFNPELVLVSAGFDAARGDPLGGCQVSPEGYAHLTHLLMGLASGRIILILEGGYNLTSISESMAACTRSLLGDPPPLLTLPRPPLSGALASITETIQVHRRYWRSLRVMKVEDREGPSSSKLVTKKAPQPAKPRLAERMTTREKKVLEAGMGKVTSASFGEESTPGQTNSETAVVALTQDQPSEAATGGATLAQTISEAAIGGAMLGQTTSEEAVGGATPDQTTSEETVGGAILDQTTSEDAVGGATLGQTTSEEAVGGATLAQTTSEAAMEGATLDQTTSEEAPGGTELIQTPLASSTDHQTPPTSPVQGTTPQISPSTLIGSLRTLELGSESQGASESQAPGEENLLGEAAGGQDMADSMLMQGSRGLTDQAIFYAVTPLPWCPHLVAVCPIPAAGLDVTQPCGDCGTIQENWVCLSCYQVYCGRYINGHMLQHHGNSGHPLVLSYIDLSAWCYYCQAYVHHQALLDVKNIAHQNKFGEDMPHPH
# Conditions: at 10 µM
row,Compound,inhibition
1,COc1cc(N2CCN(C(C)=O)CC2)ccc1Nc1ncc(Cl)c(Nc2ccc(N3CCN(C(C)=O)CC3)cc2OC)n1,10.8%
